# Some of the results follow.
# B1: Clone646PsrP (Streptococcus pneumoniae) (protein)
# chain: MDHHHHHHHHASENLYFQGAPAINASLNIAKSETKVYTGEGVDSVYRVPIYYKLKVTNDGSKLTFTYTVTYVNPKTNDLGNISSMRPGYSIYNSGTSTQTMLTLGSDLGKPSGVKNYITDKNGRQVLSYNTSTMTTQGSGYTWGNGAQMNGFFAKKGYGLTSSWTVPITGTDTSFTFTPYAARTDRIGINYFNGGGKVVESSTTSQSLSQSKSLSVSAS
# Columns and labels:
# Assay in all cases: glycan array binding signal (z-score within array); higher = stronger binding
# Conditions in all cases: glycan notation: IUPAC condensed, linker removed
# [1] = target: Neu5Ac(a2-3)Gal(b1-4)GlcNAc(b1-6)GalNAc
# In short: (§1)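 The Consortium for Functional Glycomics database supplied 3228 glycan arrays, of which those lacking an available protein sequence were dropped. The binding signal, a within-array Z-score, was averaged across arrays of the same protein sequence and across linkers. Negative scores can be read as non-binding.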
# [2] = target: Neu5Ac(a2-3)Gal(b1-4)GlcNAc(b1-6)[Gal(b1-3)]GalNAc
# In short: as §1
# [3] = target: Neu5Ac(a2-3)Gal(b1-4)GlcNAc(b1-6)[Neu5Ac(a2-3)Gal(b1-3)]GalNAc
# In short: as §1
# [4] = target: Neu5Ac(a2-3)Gal(b1-4)GlcNAc6S
# In short: as §1
# [5] = target: Neu5Ac(a2-3)Gal(b1-4)[Fuc(a1-3)]GlcNAc
# In short: as §1
# [6] = target: Neu5Ac(a2-3)Gal(b1-4)[Fuc(a1-3)]GlcNAc(b1-2)Man
# In short: as §1
# [7] = target: Neu5Ac(a2-3)Gal(b1-4)[Fuc(a1-3)]GlcNAc(b1-3)Gal
# In short: as §1
# [8] = target: Neu5Ac(a2-3)Gal(b1-4)[Fuc(a1-3)]GlcNAc(b1-3)Gal(b1-4)GlcNAc
# In short: as §1
# [9] = target: Neu5Ac(a2-3)Gal(b1-4)[Fuc(a1-3)]GlcNAc(b1-3)Gal(b1-4)[Fuc(a1-3)]GlcNAc(b1-3)Gal(b1-4)[Fuc(a1-3)]GlcNAc
# In short: as §1
# [10] = target: Neu5Ac(a2-3)Gal(b1-4)[Fuc(a1-3)]GlcNAc(b1-3)GalNAc
# In short: as §1
# [11] = target: Neu5Ac(a2-3)Gal(b1-4)[Fuc(a1-3)]GlcNAc(b1-6)[Gal(b1-3)]GalNAc
# In short: as §1
# [12] = target: Neu5Ac(a2-3)Gal(b1-4)[Fuc(a1-3)]GlcNAc(b1-6)[Neu5Ac(a2-3)Gal(b1-3)]GalNAc
# In short: as §1
# [13] = target: Neu5Ac(a2-3)Gal(b1-4)[Fuc(a1-3)]GlcNAc6S
# In short: as §1
# [14] = target: Neu5Ac(a2-3)Gal6S(b1-4)GlcNAc
# In short: as §1
# [15] = target: Neu5Ac(a2-3)Gal6S(b1-4)[Fuc(a1-3)]GlcNAc
# In short: as §1
# Neu5Ac(a2-3)GalNAc = target: Neu5Ac(a2-3)GalNAc
# In short: as §1
# [16] = target: Neu5Ac(a2-3)GalNAc(b1-4)GlcNAc
# In short: as §1
# [17] = target: Neu5Ac(a2-3)[GalNAc(b1-4)]Gal(b1-4)Glc
# In short: as §1
# [18] = target: Neu5Ac(a2-3)[GalNAc(b1-4)]Gal(b1-4)GlcNAc
# In short: as §1
# [19] = target: Neu5Ac(a2-3)[GalNAc(b1-4)]Gal(b1-4)GlcNAc(b1-3)GalNAc
# In short: as §1
# [20] = target: Neu5Ac(a2-3)[Neu5Ac(a2-6)]GalNAc
# In short: as §1
# Neu5Ac(a2-6)Gal = target: Neu5Ac(a2-6)Gal
# In short: as §1
# [21] = target: Neu5Ac(a2-6)Gal(b1-3)GlcNAc(b1-3)[Gal(b1-4)GlcNAc(b1-6)]Gal(b1-4)Glc
# In short: as §1
# Neu5Ac(a2-6)Gal(b1-4)Glc = target: Neu5Ac(a2-6)Gal(b1-4)Glc
# In short: as §1
# [22] = target: Neu5Ac(a2-6)Gal(b1-4)GlcNAc
# In short: as §1
# [23] = target: Neu5Ac(a2-6)Gal(b1-4)GlcNAc(b1-2)Man
# In short: as §1
# [24] = target: Neu5Ac(a2-6)Gal(b1-4)GlcNAc(b1-2)Man(a1-3)Man(b1-4)GlcNAc(b1-4)GlcNAc
# In short: as §1
# [25] = target: Neu5Ac(a2-6)Gal(b1-4)GlcNAc(b1-2)Man(a1-3)[Gal(b1-4)GlcNAc(b1-2)Man(a1-6)]Man(b1-4)GlcNAc(b1-4)GlcNAc
# In short: as §1
# [26] = target: Neu5Ac(a2-6)Gal(b1-4)GlcNAc(b1-2)Man(a1-3)[GlcNAc(b1-2)Man(a1-6)]Man(b1-4)GlcNAc(b1-4)GlcNAc
# In short: as §1
# [27] = target: Neu5Ac(a2-6)Gal(b1-4)GlcNAc(b1-2)Man(a1-3)[GlcNAc(b1-4)][Neu5Ac(a2-6)Gal(b1-4)GlcNAc(b1-2)Man(a1-6)]Man(b1-4)GlcNAc(b1-4)GlcNAc
# In short: as §1
# [28] = target: Neu5Ac(a2-6)Gal(b1-4)GlcNAc(b1-2)Man(a1-3)[Man(a1-6)]Man(b1-4)GlcNAc(b1-4)GlcNAc
# In short: as §1
# [29] = target: Neu5Ac(a2-6)Gal(b1-4)GlcNAc(b1-2)Man(a1-3)[Neu5Ac(a2-3)Gal(b1-4)GlcNAc(b1-2)Man(a1-6)]Man(b1-4)GlcNAc(b1-4)GlcNAc
# In short: as §1
# [30] = target: Neu5Ac(a2-6)Gal(b1-4)GlcNAc(b1-2)Man(a1-3)[Neu5Ac(a2-6)Gal(b1-4)GlcNAc(b1-2)Man(a1-6)]Man(b1-4)GlcNAc(b1-4)GlcNAc
# In short: as §1
# [31] = target: Neu5Ac(a2-6)Gal(b1-4)GlcNAc(b1-2)Man(a1-3)[Neu5Ac(a2-6)Gal(b1-4)GlcNAc(b1-2)Man(a1-6)]Man(b1-4)GlcNAc(b1-4)[Fuc(a1-6)]GlcNAc
# In short: as §1
# [32] = target: Neu5Ac(a2-6)Gal(b1-4)GlcNAc(b1-2)Man(a1-6)Man(b1-4)GlcNAc(b1-4)GlcNAc
# In short: as §1
# [33] = target: Neu5Ac(a2-6)Gal(b1-4)GlcNAc(b1-2)Man(a1-6)[Gal(b1-4)GlcNAc(b1-2)Man(a1-3)]Man(b1-4)GlcNAc(b1-4)GlcNAc
# In short: as §1
# [34] = target: Neu5Ac(a2-6)Gal(b1-4)GlcNAc(b1-2)Man(a1-6)[GlcNAc(b1-2)Man(a1-3)]Man(b1-4)GlcNAc(b1-4)GlcNAc
# In short: as §1
# [35] = target: Neu5Ac(a2-6)Gal(b1-4)GlcNAc(b1-2)Man(a1-6)[Man(a1-3)]Man(b1-4)GlcNAc(b1-4)GlcNAc
# In short: as §1
# [36] = target: Neu5Ac(a2-6)Gal(b1-4)GlcNAc(b1-2)[Neu5Ac(a2-6)Gal(b1-4)GlcNAc(b1-4)]Man(a1-3)[GlcNAc(b1-4)][Neu5Ac(a2-6)Gal(b1-4)GlcNAc(b1-2)[Neu5Ac(a2-6)Gal(b1-4)GlcNAc(b1-6)]Man(a1-6)]Man(b1-4)GlcNAc(b1-4)GlcNAc
# In short: as §1
# [37] = target: Neu5Ac(a2-6)Gal(b1-4)GlcNAc(b1-2)[Neu5Ac(a2-6)Gal(b1-4)GlcNAc(b1-4)]Man(a1-3)[GlcNAc(b1-4)][Neu5Ac(a2-6)Gal(b1-4)GlcNAc(b1-4)Man(a1-6)]Man(b1-4)GlcNAc(b1-4)GlcNAc
# In short: as §1
# [38] = target: Neu5Ac(a2-6)Gal(b1-4)GlcNAc(b1-2)[Neu5Ac(a2-6)Gal(b1-4)GlcNAc(b1-6)]Man(a1-6)[Neu5Ac(a2-6)Gal(b1-4)GlcNAc(b1-2)Man(a1-3)][GlcNAc(b1-4)]Man(b1-4)GlcNAc(b1-4)GlcNAc
# In short: as §1
# [39] = target: Neu5Ac(a2-6)Gal(b1-4)GlcNAc(b1-3)Gal(b1-3)GlcNAc
# In short: as §1
# [40] = target: Neu5Ac(a2-6)Gal(b1-4)GlcNAc(b1-3)Gal(b1-4)GlcNAc
# In short: as §1
# [41] = target: Neu5Ac(a2-6)Gal(b1-4)GlcNAc(b1-3)Gal(b1-4)GlcNAc(b1-2)Man(a1-3)[Neu5Ac(a2-6)Gal(b1-4)GlcNAc(b1-3)Gal(b1-4)GlcNAc(b1-2)Man(a1-6)]GalNAc
# In short: as §1
# [42] = target: Neu5Ac(a2-6)Gal(b1-4)GlcNAc(b1-3)Gal(b1-4)GlcNAc(b1-3)Gal(b1-4)GlcNAc
# In short: as §1
# [43] = target: Neu5Ac(a2-6)Gal(b1-4)GlcNAc(b1-3)Gal(b1-4)GlcNAc(b1-3)Gal(b1-4)GlcNAc(b1-2)Man(a1-3)[Neu5Ac(a2-6)Gal(b1-4)GlcNAc(b1-3)Gal(b1-4)GlcNAc(b1-3)Gal(b1-4)GlcNAc(b1-2)Man(a1-6)]GalNAc
# In short: as §1
binder,measurement,setting,value
B1,glycan array binding signal (z-score),[1],-0.512
same,glycan array binding signal (z-score),[2],-0.717
same,glycan array binding signal (z-score),[3],-0.92
same,glycan array binding signal (z-score),[4],-0.446
same,glycan array binding signal (z-score),[5],-0.772
same,glycan array binding signal (z-score),[6],-0.265
same,glycan array binding signal (z-score),[7],-1
same,glycan array binding signal (z-score),[8],-0.71
same,glycan array binding signal (z-score),[9],-0.774
same,glycan array binding signal (z-score),[10],-0.406
same,glycan array binding signal (z-score),[11],-0.803
same,glycan array binding signal (z-score),[12],0.021
same,glycan array binding signal (z-score),[13],0.101
same,glycan array binding signal (z-score),[14],-0.579
same,glycan array binding signal (z-score),[15],-0.747
same,glycan array binding signal (z-score),Neu5Ac(a2-3)GalNAc,0.419
same,glycan array binding signal (z-score),[16],-0.469
same,glycan array binding signal (z-score),[17],-0.703
same,glycan array binding signal (z-score),[18],-0.733
same,glycan array binding signal (z-score),[19],0.037
same,glycan array binding signal (z-score),[20],0.674
same,glycan array binding signal (z-score),Neu5Ac(a2-6)Gal,-0.605
same,glycan array binding signal (z-score),[21],-0.662
same,glycan array binding signal (z-score),Neu5Ac(a2-6)Gal(b1-4)Glc,0.238
same,glycan array binding signal (z-score),[22],0.155
same,glycan array binding signal (z-score),[23],0.053
same,glycan array binding signal (z-score),[24],-0.78
same,glycan array binding signal (z-score),[25],-0.713
same,glycan array binding signal (z-score),[26],-0.916
same,glycan array binding signal (z-score),[27],-0.966
same,glycan array binding signal (z-score),[28],-0.636
same,glycan array binding signal (z-score),[29],-0.696
same,glycan array binding signal (z-score),[30],0.474
same,glycan array binding signal (z-score),[31],-0.326
same,glycan array binding signal (z-score),[32],-0.789
same,glycan array binding signal (z-score),[33],-0.948
same,glycan array binding signal (z-score),[34],-0.819
same,glycan array binding signal (z-score),[35],-0.989
same,glycan array binding signal (z-score),[36],-0.332
same,glycan array binding signal (z-score),[37],-0.181
same,glycan array binding signal (z-score),[38],-0.861
same,glycan array binding signal (z-score),[39],-0.315
same,glycan array binding signal (z-score),[40],-0.326
same,glycan array binding signal (z-score),[41],-0.421
same,glycan array binding signal (z-score),[42],-0.548
same,glycan array binding signal (z-score),[43],0.4

# Exported with tabs: entries from further up.
binder	measurement	setting	value
B1	glycan array binding signal (z-score)	[3]	-0.92
same	glycan array binding signal (z-score)	[6]	-0.265
same	glycan array binding signal (z-score)	[9]	-0.774
same	glycan array binding signal (z-score)	[11]	-0.803
same	glycan array binding signal (z-score)	[13]	0.101
same	glycan array binding signal (z-score)	[16]	-0.469
same	glycan array binding signal (z-score)	[17]	-0.703
same	glycan array binding signal (z-score)	[19]	0.037
same	glycan array binding signal (z-score)	[25]	-0.713
same	glycan array binding signal (z-score)	[26]	-0.916
same	glycan array binding signal (z-score)	[27]	-0.966
same	glycan array binding signal (z-score)	[35]	-0.989
same	glycan array binding signal (z-score)	[40]	-0.326
same	glycan array binding signal (z-score)	[43]	0.4

# Reference: the supplement of paper PMC8728848
